In PubChem BioAssay (NCATS):
Some of the results follow. Further columns of the screen follow, without active or inactive calls. Most of these compounds were active or inconclusive in the main read-out, so they are no random draw. Potencies come from curve fits of mixed quality, noted in brackets.

assay: qHTS for identification of novel therapeutic agents for treatment of microphthalmiaassociated transcription factor (MiT) renal cell carcinoma (RCC) (AID 1963991); conditions: TFE3-RCC viability, CellTiter-Glo, 48 h; measured here: UOK124 cell viability
Outline: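 Viability of three TFE3-fusion renal carcinoma lines measured by CellTiter-Glo after 48 h treatment with each of 1912 compounds at 11 concentrations. Responses scaled between DMSO (100%) and empty wells (0%) before curve fitting.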

SMILES	AC50
COc1ccc2c3n(c(=NC(=O)c4cccnc4)nc2c1OC)CCN3	0.59 µM [falling, full curve]
C[C@@H](Oc1ccc2[nH]nc(C=Cc3cnn(CCO)c3)c2c1)c1c(Cl)cncc1Cl	16.6 µM [falling, partial curve]
CCn1c(-c2nonc2N)nc2cncc(CNC3CCNCC3)c21	11.8 µM [falling, partial curve]
CCCCCCOC(=O)N=C(N)c1ccc(NCc2nc3cc(C(=O)N(CCC(=O)OCC)c4ccccn4)ccc3n2C)cc1	37.2 µM [falling, partial curve, poor fit]
O=C(c1ccc(F)c(F)c1Nc1ccc(I)cc1F)N1CC(O)([C@H]2CCCCN2)C1	14.8 µM [falling, partial curve]
CNC(=O)c1c(-c2ccc(F)cc2)oc2cc(N(CCO)S(C)(=O)=O)c(C3CC3)cc12	0.00105 µM [falling, full curve, poor fit]
C[C@@H]1CN(Cc2ccc(F)cc2)[C@@H](C)CN1C(=O)c1cc2c(C(=O)C(=O)N(C)C)cn(C)c2cc1Cl	0.00743 µM [rising, full curve, poor fit]
C=CC(=O)Nc1cc(NC(=O)c2ccc(C)c(NC(=O)c3ccno3)c2)cc(C(F)(F)F)c1	18.7 µM [falling, partial curve]
CCn1c(-c2nonc2N)nc2c(C#CC(C)(C)O)ncc(OC[C@H]3CCCNC3)c21	37.2 µM [falling, single point]
CC(C)(C)NC(=O)[C@H]1CN(Cc2cccnc2)CCN1C[C@@H](O)C[C@@H](Cc1ccccc1)C(=O)N[C@H]1c2ccccc2C[C@H]1O	26.4 µM [falling, partial curve]
